Binding data for one substance are collected here from article doi:10.1101/2025.01.09.632086.

Chains of the proteins cited; added tags and fusions are not shown. Lines headed by an entry give the natural chain unless they say otherwise; changes in a name come on top.
UniProt P0ACD4, whole entry, looked up, stated change not applied: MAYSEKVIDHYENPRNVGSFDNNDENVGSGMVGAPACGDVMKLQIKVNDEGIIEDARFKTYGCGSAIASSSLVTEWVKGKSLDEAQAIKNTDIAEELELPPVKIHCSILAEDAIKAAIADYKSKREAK

These are yes or no findings as the source states them, for the method shown.

This experiment addresses IscU Y11P (E. coli) (UniProt P0ACD4). The experiment is described as follows: SEC-MALS. In general terms: Size exclusion chromatography separates by hydrodynamic size, large species first.

As to IscU Y11P (from UniProt P0ACD4 1-128), the binding result was “no binding (tested: 5 mg/mL)”.
